# According to the supplement of paper PMC4604168 (melanoma cell lines):
# The list shows a part of the results. Single values are uncertain, as repeats are few or missing.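 Imaging used 1,536-well plates; nuclei positive for cleaved PARP by antibody were divided by total DNA-stained nuclei to yield the apoptosis fraction. Doses for screening kept most cells viable, and cell lines differ markedly in resting and induced cleaved-PARP levels.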
# System: CBRC016 (line from a melanoma biopsy)
# Assay: cleaved PARP positive nuclei fraction relative to DMSO control; melanoma cells; higher = more apoptosis
# Conditions: library dose: low library concentration; 72 h
row,Structure (SMILES),cleaved PARP positive nuclei fraction [%]
1,"Nc1cccc2c1CN(C1CCC(=O)NC1=O)C2=O (stereo not given) [lenalidomide] + COC(=O)c1sccc1S(=O)(=O)Nc1ccc(Nc2ccccc2)cc1OC [GSK0660] (first compound 1 µM, partner dose 1 µM)",82.1
2,"O=C(Nc1cccc(Cl)c1)Nc1ncc(CCNc2ncnc3ccsc23)s1 + CCc1ccc(CCOc2ccc(CC3SC(=O)NC3=O)cc2)nc1 [pioglitazone] (first compound 0.0008 µM, partner dose 2 µM)",126
3,"COCC[n+]1c2c(n(Cc3cnccn3)c1C)C(=O)c1ccccc1C2=O + O=c1cc(-c2cccc3c2Sc2ccccc2S3)oc(N2CCOCC2)c1 [KU55933] (first compound 0.0004 µM, partner dose 1 µM)",88.9
4,"Nc1cccc2c1CN(C1CCC(=O)NC1=O)C2=O (stereo not given) [lenalidomide] + COc1ccc(-c2ccc3c(N4CCOCC4)nc(N4C[C@@H](C)O[C@@H](C)C4)nc3n2)cc1CO [KU0063794] (first compound 1 µM, partner dose 0.02 µM)",42.4
5,"NC(=O)Nc1cc(-c2cccc(F)c2)sc1C(=O)N[C@H]1CCCNC1 + Cn1cc(/C=C2\C(=O)Nc3cccnc32)c2ccccc21 [GW441756] (first compound 0.02 µM, partner dose 0.4 µM)",114
6,"COc1cc(Nc2ncc(F)c(Nc3ccc4c(n3)NC(=O)C(C)(C)O4)n2)cc(OC)c1OC [Tamatinib] + COc1cc(N2CCC(N3CCN(C)CC3)CC2)ccc1Nc1ncc(Cl)c(Nc2ccccc2S(=O)(=O)C(C)C)n1 [NVP-TAE684] (first compound 0.4 µM, partner dose 0.08 µM)",55.2
7,"NC(=O)Nc1cc(-c2cccc(F)c2)sc1C(=O)N[C@H]1CCCNC1 + CCN(CC)CCCCNc1ncc2cc(-c3cc(OC)cc(OC)c3)c(NC(=O)NC(C)(C)C)nc2n1 [PD173074] (first compound 0.02 µM, partner dose 0.1 µM)",66.7
8,"O=C(CCCCCCC(=O)Nc1ccccc1)NO [vorinostat] + CCCCCCCCCCCC1=C(O)C(=O)C=C(O)C1=O [Embelin] (first compound 0.08 µM, partner dose 1.2 µM)",69.6
9,"O=C(Nc1cccc(Cl)c1)Nc1ncc(CCNc2ncnc3ccsc23)s1 + COc1ccc(-c2ccc3c(N4CCOCC4)nc(N4C[C@@H](C)O[C@@H](C)C4)nc3n2)cc1CO [KU0063794] (first compound 0.0008 µM, partner dose 0.02 µM)",84.3
10,"Cc1nc(Nc2ncc(C(=O)Nc3c(C)cccc3Cl)s2)cc(N2CCN(CCO)CC2)n1 [dasatanib] + CCN(CC)CCCCNc1ncc2cc(-c3cc(OC)cc(OC)c3)c(NC(=O)NC(C)(C)C)nc2n1 [PD173074] (first compound 0.004 µM, partner dose 0.1 µM)",78.1
11,"CC1(C)NC(=O)N(c2ccc([N+](=O)[O-])c(C(F)(F)F)c2)C1=O [nilutamide] + COc1ccc(COc2ccc(Cc3cnc(N)nc3N)cc2OC)cc1 [GW2580] (first compound 1 µM, partner dose 1 µM)",147
12,"COCC[n+]1c2c(n(Cc3cnccn3)c1C)C(=O)c1ccccc1C2=O + CCc1ccc(CCOc2ccc(CC3SC(=O)NC3=O)cc2)nc1 [pioglitazone] (first compound 0.0004 µM, partner dose 2 µM)",175
13,"O=C(CCCCCCC(=O)Nc1ccccc1)NO [vorinostat] + COc1ccc(-c2ccc3c(N4CCOCC4)nc(N4C[C@@H](C)O[C@@H](C)C4)nc3n2)cc1CO [KU0063794] (first compound 0.08 µM, partner dose 0.02 µM)",101
14,"COc1cc(Nc2ncc(F)c(Nc3ccc4c(n3)NC(=O)C(C)(C)O4)n2)cc(OC)c1OC [Tamatinib] + O=S(=O)(c1ccccc1)N(CC(F)(F)F)c1ccc(C(O)(C(F)(F)F)C(F)(F)F)cc1 [T0901317] (first compound 0.4 µM, partner dose 1.4 µM)",43.4
15,"NC(=O)Nc1cc(-c2cccc(F)c2)sc1C(=O)N[C@H]1CCCNC1 + O=S(=O)(c1ccccc1)N(CC(F)(F)F)c1ccc(C(O)(C(F)(F)F)C(F)(F)F)cc1 [T0901317] (first compound 0.02 µM, partner dose 1.4 µM)",105

# Random excerpt: 2 entries already listed
row,Structure (SMILES),cleaved PARP positive nuclei fraction [%]
7,"NC(=O)Nc1cc(-c2cccc(F)c2)sc1C(=O)N[C@H]1CCCNC1 + CCN(CC)CCCCNc1ncc2cc(-c3cc(OC)cc(OC)c3)c(NC(=O)NC(C)(C)C)nc2n1 [PD173074] (first compound 0.02 µM, partner dose 0.1 µM)",66.7
11,"CC1(C)NC(=O)N(c2ccc([N+](=O)[O-])c(C(F)(F)F)c2)C1=O [nilutamide] + COc1ccc(COc2ccc(Cc3cnc(N)nc3N)cc2OC)cc1 [GW2580] (first compound 1 µM, partner dose 1 µM)",147
